The list does not hold the whole screen: it is rich in T/C values a quarter to a half above the control, in often repeated tests (any T/C) and in doses without a T/C. Further doses and runs are listed elsewhere. T/C gives the treated animals as a percentage of the vehicle group. Some doses have a count of surviving animals in place of a T/C: the source files T/C as zero there, which appears to mark a toxic dose or a test without result, not a measured value. Some survivor counts are full or nearly so, which does not show that the dose was tolerated: survival well below the control is almost never listed, so the zero probably covers shortened survival too. Counts of survivors are from the toxicity check (mostly the fifth day) where no day follows; animals may have died later. Schedule codes are those of the source, taken here to give the interval after Q, in days (D) or hours (H), and the number of doses after X. Some structures stand for samples that the source files as different forms (salt, stereo form or complex); doses refer to the form tested. Where survival is the endpoint, the PubChem record calls one and a half times the control and up active, and a quarter to a half above the control has no call in these data; cut-offs in other NCI protocols can differ. Some T/C values carry the count of animals alive at the toxicity check (mostly the fifth day); where none is given, no animal had died by that day. Some doses were run more than once; the values are given in rising order.
Test system: CD2F1 mice, L1210 leukemia ip, survival T/C
Test: NCI In Vivo Anticancer Drug Screen. Data for tumor model L1210 Leukemia (intraperitoneal) in CD2F1 (CDF1) mice
Details: higher T/C = longer survival
Method in brief: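 Transplantable tumor in mice; compound-treated vs vehicle-treated groups. Read-out = treated/control ratio of the measured endpoint.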

[1] = T/C endpoint: mean survival time, dose: 200.0 mg/kg/injection, schedule: Q04DX003 (ip), vehicle: saline with Tween-80
[2] = T/C endpoint: mean survival time, dose: 400.0 mg/kg/injection, schedule: Q04DX003 (ip), vehicle: saline with Tween-80
[3] = T/C endpoint: mean survival time, dose: 400.0 mg/kg/injection, schedule: Q01DX009 (ip), vehicle: saline with Tween-80
[4] = T/C endpoint: mean survival time, dose: 100.0 mg/kg/injection, schedule: Q01DX001 (ip), vehicle: saline with Tween-80
[5] = T/C endpoint: mean survival time, dose: 200.0 mg/kg/injection, schedule: Q01DX001 (ip), vehicle: saline with Tween-80
[6] = T/C endpoint: mean survival time, dose: 400.0 mg/kg/injection, schedule: Q01DX001 (ip), vehicle: saline with Tween-80
[7] = T/C endpoint: mean survival time, dose: 200.0 mg/kg/injection, schedule: Q01DX009 (ip), vehicle: water
[8] = T/C endpoint: mean survival time, dose: 100.0 mg/kg/injection, schedule: Q01DX009 (ip), vehicle: saline with Tween-80
[9] = T/C endpoint: mean survival time, dose: 100.0 mg/kg/injection, schedule: Q04DX002 (ip), vehicle: saline with Tween-80
[10] = T/C endpoint: mean survival time, dose: 400.0 mg/kg/injection, schedule: Q04DX002 (ip), vehicle: saline with Tween-80
[11] = T/C endpoint: mean survival time, dose: 25.0 mg/kg/injection, schedule: Q01DX009 (ip), vehicle: saline with Tween-80
[12] = T/C endpoint: mean survival time, dose: 50.0 mg/kg/injection, schedule: Q01DX009 (ip), vehicle: saline with Tween-80
[13] = T/C endpoint: mean survival time, dose: 200.0 mg/kg/injection, schedule: Q01DX005 (ip), vehicle: saline

SMILES: c1ccc(C(c2ccccc2)[n+]2ccccc2)cc1
- survivor count (T/C endpoint: mean survival time, dose: 20.0 mg/kg/injection, schedule: Q01DX009 (ip), vehicle: saline): 0 of 6
- survivor count (T/C endpoint: mean survival time, dose: 100.0 mg/kg/injection, schedule: Q04DX003 (ip), vehicle: saline with Tween-80): 0 of 6
- survivor count [1]: 0 of 6
- survivor count [2]: 0 of 6

SMILES: O=S(=O)(CS(=O)(=O)Nc1ccccc1)Nc1ccccc1
- survivor count [1]: 3 of 6
- survivor count [2]: 2 of 6

SMILES: CC1C2C=CC(C2)C1C(=O)O (centres undefined)
- survivor count [3]: 6 of 6

SMILES: Cc1cc(C)cc(C(C)(C)C)c1
- survivor count [3]: 4 of 6

SMILES: Cc1ncc(COP(=O)(O)O)c(C=NC(CCCCN)C(=O)O)c1O.O.[Cu] (centres undefined)
- survivor count [4]: 0 of 3
- survivor count [5]: 0 of 3
- survivor count [6]: 1 of 3

SMILES: COc1cc2ccc(/C=C\[N+](=O)[O-])cc2cc1OC
- survivor count (T/C endpoint: mean survival time, dose: 100.0 mg/kg/injection, schedule: Q01DX009 (ip), vehicle: water): 3 of 6
- survivor count [7]: 2 of 6

SMILES: CN(C)C(=O)c1cccc(NC(=O)NCc2cccc(N3C(N)=NC(N)=NC3(C)C)c2)c1
- survivor count (T/C endpoint: mean survival time, dose: 100.0 mg/kg/injection, schedule: Q01DX009 (ip), vehicle: saline): 3 of 6

SMILES: CNC(C)COc1ccccc1 (centres undefined)
- survivor count [1]: 0 of 6
- survivor count [2]: 0 of 6

SMILES: Nc1nc2nc[n-]c2c(=O)[nH]1.[NH2-].[NH2-].[NH2-].[NH2-].[NH2-].[Ru+6]
- survivor count (T/C endpoint: mean survival time, dose: 50.0 mg/kg/injection, schedule: Q04DX003 (ip), vehicle: water): 6 of 6
- survivor count (T/C endpoint: mean survival time, dose: 100.0 mg/kg/injection, schedule: Q04DX003 (ip), vehicle: water): 4 of 6

SMILES: O=C(N/N=C/c1ccc2c(c1)OCO2)c1cccc(C(F)(F)F)c1
- survivor count [8]: 3 of 3

SMILES: COC(=O)C1OC(Sc2ncnc3nc[nH]c23)C(O)C(O)C1O (centres undefined)
- T/C (T/C endpoint: median survival time, dose: 200.0 mg/kg/injection, schedule: Q01DX005 (ip), vehicle: water): 131 % of control
- T/C (T/C endpoint: median survival time, dose: 400.0 mg/kg/injection, schedule: Q01DX005 (ip), vehicle: water): 135 % of control

SMILES: CC(CP(=O)(c1ccccc1)c1ccccc1)C(O)(C(=O)c1ccccc1)c1ccccc1 (centres undefined)
- survivor count [3]: 3 of 6

SMILES: Nc1nc2nc3c(nc2c(=O)[nH]1)CN(c1ccc(C(=O)O)cc1)C3=O
- survivor count [2]: 2 of 6

SMILES: COC1C(CO)OC(n2c3c(Cl)cccc3c3c4c(c5c6cccc(Cl)c6[nH]c5c32)C(=O)NC4=O)C(O)C1O (centres undefined)
- T/C (T/C endpoint: median survival time, dose: 25.0 mg/kg/injection, schedule: Q01DX009 (ip), vehicle: distilled water + Tween-80): 131 % of control
- T/C (T/C endpoint: median survival time, dose: 50.0 mg/kg/injection, schedule: Q01DX009 (ip), vehicle: distilled water + Tween-80): 125 % of control
- T/C (T/C endpoint: median survival time, dose: 100.0 mg/kg/injection, schedule: Q01DX009 (ip), vehicle: distilled water + Tween-80): 138 % of control
- T/C (T/C endpoint: median survival time, dose: 200.0 mg/kg/injection, schedule: Q01DX009 (ip), vehicle: distilled water + Tween-80): 136 % of control
- T/C (T/C endpoint: median survival time, dose: 277.8 mg/kg/injection, schedule: Q01DX009 (ip), vehicle: distilled water + Tween-80): 125 % of control [5 of 6 alive]

SMILES: COc1ccc(NC(=O)Nc2ccc(Cl)cc2OC)cc1
- survivor count [9]: 3 of 3

SMILES: NC(CSS(=O)(=O)O)=NC1CCCCC1
- survivor count [9]: 0 of 3
- survivor count (T/C endpoint: mean survival time, dose: 200.0 mg/kg/injection, schedule: Q04DX002 (ip), vehicle: saline with Tween-80): 0 of 3
- survivor count [10]: 0 of 3

SMILES: O=Cc1cc([N+](=O)[O-])cc(CCl)c1O
- survivor count (T/C endpoint: mean survival time, dose: 200.0 mg/kg/injection, schedule: Q01DX009 (ip), vehicle: Klucel (hydroxypropylcellulose) (HPC)): 1 of 6

SMILES: NNC(=O)c1ccc(-c2ccccc2)cc1
- survivor count [7]: 1 of 6
- survivor count (T/C endpoint: mean survival time, dose: 400.0 mg/kg/injection, schedule: Q01DX009 (ip), vehicle: water): 1 of 6

SMILES: CCOC(=O)c1cccc(N(CCOS(C)(=O)=O)CCOS(C)(=O)=O)c1
- survivor count (T/C endpoint: mean survival time, dose: 400.0 mg/kg/injection, schedule: Q01DX001 (ip), vehicle: saline): 3 of 6

SMILES: NC1=NCCCN1
- survivor count [11]: 5 of 6
- survivor count [12]: 2 of 6
- survivor count [8]: 0 of 6

SMILES: CC1=NCCc2c1cc1c([nH]c3ccccc31)c2C
- T/C [8]: 129 % of control
- survivor count (T/C endpoint: mean survival time, dose: 150.0 mg/kg/injection, schedule: Q01DX009 (ip), vehicle: saline with Tween-80): 3 of 6

SMILES: COc1ccc2c(c1)CCN=C2CCN1C(=O)CCC1=O
- survivor count (T/C endpoint: mean survival time, dose: 400.0 mg/kg/injection, schedule: Q04DX003 (ip), vehicle: saline): 4 of 6

SMILES: Nc1nc2n[nH]nc2c(=O)[nH]1
- T/C (T/C endpoint: mean survival time, dose: 3.13 mg/kg/injection, schedule: Q01DX009 (ip), vehicle: saline with Tween-80): 134 % of control
- T/C (T/C endpoint: mean survival time, dose: 6.25 mg/kg/injection, schedule: Q01DX009 (ip), vehicle: saline with Tween-80): 131 and 142 % of control
- T/C (T/C endpoint: mean survival time, dose: 12.5 mg/kg/injection, schedule: Q01DX009 (ip), vehicle: saline with Tween-80): 140 % of control
- T/C (T/C endpoint: mean survival time, dose: 22.0 mg/kg/injection, schedule: Q01DX009 (ip), vehicle: saline with Tween-80): 137 % of control
- T/C (T/C endpoint: mean survival time, dose: 25.0 mg/kg/injection, schedule: Q01DX005 (ip), vehicle: saline): 126, 136, 138, 143, 158 % of control
- T/C [11]: 148 % of control
- T/C (T/C endpoint: mean survival time, dose: 33.0 mg/kg/injection, schedule: Q01DX009 (ip), vehicle: saline with Tween-80): 140 % of control
- T/C (T/C endpoint: mean survival time, dose: 50.0 mg/kg/injection, schedule: Q01DX005 (ip), vehicle: saline): 131, 135, 137, 153 [5 of 6 alive], 162 % of control
- T/C (T/C endpoint: mean survival time, dose: 50.0 mg/kg/injection, schedule: Q01DX007 (ip), vehicle: other): 146 % of control
- T/C [12]: 140 % of control
- T/C (T/C endpoint: mean survival time, dose: 100.0 mg/kg/injection, schedule: Q01DX005 (ip), vehicle: saline): 136, 139, 143, 162, 184 % of control
- T/C (T/C endpoint: mean survival time, dose: 100.0 mg/kg/injection, schedule: Q01DX007 (ip), vehicle: other): 146 % of control
- T/C (T/C endpoint: mean survival time, dose: 100.0 mg/kg/injection, schedule: Q01DX009 (ip), vehicle: saline sonified): 132 % of control
- T/C (T/C endpoint: mean survival time, dose: 100.0 mg/kg/injection, schedule: Q03DX003 (ip), vehicle: other): 125 % of control
- T/C [13]: 143, 148, 150, 167 % of control
- survivor count [13]: 3 of 6
- survivor count (T/C endpoint: mean survival time, dose: 400.0 mg/kg/injection, schedule: Q01DX009 (ip), vehicle: saline sonified): 1 of 6
- survivor count [3]: 2 of 6
- T/C (T/C endpoint: median survival time, dose: 50.0 mg/kg/injection, schedule: Q01DX009 (ip), vehicle: saline): 144 % of control
- T/C (T/C endpoint: median survival time, dose: 100.0 mg/kg/injection, schedule: Q01DX009 (ip), vehicle: saline): 144 % of control
- T/C (T/C endpoint: median survival time, dose: 200.0 mg/kg/injection, schedule: Q01DX009 (ip), vehicle: saline): 144 % of control
- survivor count (T/C endpoint: median survival time, dose: 400.0 mg/kg/injection, schedule: Q01DX009 (ip), vehicle: saline): 3 of 6

SMILES: O=[As](O)(CC(O)c1ccccc1)c1cccc(Cl)c1 (centres undefined)
- survivor count (T/C endpoint: mean survival time, dose: 25.0 mg/kg/injection, schedule: Q04DX003 (ip), vehicle: saline with Tween-80): 0 of 6

SMILES: COC(=O)C(CSSCC(NC(=O)CNC(=O)c1ccccc1)C(=O)OC)NC(=O)CNC(=O)c1ccccc1 (centres undefined)
- survivor count [3]: 4 of 6

SMILES: CC(=O)[O][Hg][c]1ccccc1
- survivor count (T/C endpoint: mean survival time, dose: 50.0 mg/kg/injection, schedule: Q01DX001 (ip), vehicle: Klucel (hydroxypropylcellulose) (HPC)): 0 of 3
- survivor count [12]: 3 of 6
- survivor count [4]: 0 of 3
- survivor count [8]: 0 of 6
- survivor count [5]: 0 of 3
- survivor count (T/C endpoint: mean survival time, dose: 200.0 mg/kg/injection, schedule: Q01DX009 (ip), vehicle: saline with Tween-80): 0 of 6
- survivor count [6]: 0 of 3
- survivor count [3]: 0 of 6

SMILES: O=C1c2ccccc2C(=O)N1CC(O)COc1ccccc1[N+](=O)[O-] (centres undefined)
- survivor count [10]: 3 of 3

SMILES: O=C(O)c1ccccc1Nc1ccc(Br)cc1
- survivor count [2]: 0 of 6

SMILES: C1=CC2CC1CC2[P+](c1ccccc1)(c1ccccc1)c1ccccc1 (centres undefined)
- survivor count [4]: 1 of 3
- survivor count [5]: 0 of 3
- survivor count [6]: 0 of 3

From PubChem BioAssay AID256 (DTP/NCI, 2004)
